PubChem BioAssay AID1259254 – NCATS – 2017
Aim: 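Finding genes that stop cells copying their DNA twice in one cycle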 (primary screen). System: human HCT116 colorectal cancer cells. Reagents: single siRNA against human genes. Time to read-out: 3 days. Detection: 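Imaged Hoechst DNA stain sorts each cell into a cycle phase by DNA amount; per plate, G2 fraction set to 0% for non-targeting and 100% for GMNN siRNA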. Direction: G2 robust z-score and G2 cells, % of GMNN control: higher = more G2 cells, more excess DNA replication. Rule for the call: 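An siRNA counts as active if its G2 robust z-score lies at least 5 MADs above the screen median; here such calls match roughly 38% of GMNN control or more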.
Here is one part, drawn at random, of about 59,000 deposited reagents. About 1,550 of all reagents (2.6%) count as active. 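G2 share is only a proxy for re-replication; each gene was hit by three separate siRNAs, and active genes were retested.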 Unmarked entries are inactive. Reagents against one gene are numbered here. Further read-outs or replicates are left out here. No sequences are given here. Not given: the amount of reagent.

For BANP (BTG3 associated nuclear protein) #1, what was measured?
G2 robust z-score: 0.0516; G2 cells, % of GMNN control: 3.33

How did the screen score BANP (BTG3 associated nuclear protein) #2?
G2 robust z-score: -1.16; G2 cells, % of GMNN control: -5.17

With BANP (BTG3 associated nuclear protein) #3, what does the deposit list?
G2 robust z-score: 0.0305; G2 cells, % of GMNN control: 3.18

With MYH15 (myosin heavy chain 15) #1, how do the results read?
G2 robust z-score: -0.795; G2 cells, % of GMNN control: -2.63

For MYH15 (myosin heavy chain 15) #2, what was measured?
G2 robust z-score: -0.0365; G2 cells, % of GMNN control: 2.71

How did the screen score MYH15 (myosin heavy chain 15) #3?
G2 robust z-score: 6.04 (active); G2 cells, % of GMNN control: 45.5

Records listed so far whose target name starts with M or m (3):
MYH15 (myosin heavy chain 15) #1 → G2 robust z-score = -0.795; G2 cells, % of GMNN control = -2.63
MYH15 (myosin heavy chain 15) #2 → G2 robust z-score = -0.0365; G2 cells, % of GMNN control = 2.71
MYH15 (myosin heavy chain 15) #3 → G2 robust z-score = 6.04 (active); G2 cells, % of GMNN control = 45.5

Continued:
With INCENP (inner centromere protein) #1, what was measured?
G2 robust z-score: 14.2 (active); G2 cells, % of GMNN control: 103

What is on record for INCENP (inner centromere protein) #2?
G2 robust z-score: 11.4 (active); G2 cells, % of GMNN control: 83.2

With INCENP (inner centromere protein) #3, how do the results read?
G2 robust z-score: 14.5 (active); G2 cells, % of GMNN control: 105

How did the screen score POU3F1 (POU class 3 homeobox 1) #1?
G2 robust z-score: 0.958; G2 cells, % of GMNN control: 9.71

How did the screen score POU3F1 (POU class 3 homeobox 1) #2?
G2 robust z-score: -0.208; G2 cells, % of GMNN control: 1.5

For POU3F1 (POU class 3 homeobox 1) #3, what does the deposit list?
G2 robust z-score: 0.669; G2 cells, % of GMNN control: 7.67

For ZDHHC16 (zDHHC palmitoyltransferase 16) #1, what does the deposit list?
G2 robust z-score: -0.355; G2 cells, % of GMNN control: 0.47

What is on record for ZDHHC16 (zDHHC palmitoyltransferase 16) #2?
G2 robust z-score: 0.69; G2 cells, % of GMNN control: 7.82

For ZDHHC16 (zDHHC palmitoyltransferase 16) #3, how do the results read?
G2 robust z-score: -0.886; G2 cells, % of GMNN control: -3.26

What did the screen give for CMC2 (C-X9-C motif containing 2) #1?
G2 robust z-score: -0.398; G2 cells, % of GMNN control: 0.169

How did the screen score CMC2 (C-X9-C motif containing 2) #2?
G2 robust z-score: -0.516; G2 cells, % of GMNN control: -0.661

Which result is listed for CMC2 (C-X9-C motif containing 2) #3?
G2 robust z-score: 0.818; G2 cells, % of GMNN control: 8.72
